# Experimental data as given in the supplement of paper PMC6411743.
# ± gives the standard deviation of the averaged measurements. Some of the results follow.
# What was measured:
# Assay in all cases: NP40-soluble protein abundance relative to vehicle (solubility fold change) (ratio); higher = more soluble protein in presence of GTP
# [1] = target: T1, UniProt Q6UW63
# T1 sequence (whole entry): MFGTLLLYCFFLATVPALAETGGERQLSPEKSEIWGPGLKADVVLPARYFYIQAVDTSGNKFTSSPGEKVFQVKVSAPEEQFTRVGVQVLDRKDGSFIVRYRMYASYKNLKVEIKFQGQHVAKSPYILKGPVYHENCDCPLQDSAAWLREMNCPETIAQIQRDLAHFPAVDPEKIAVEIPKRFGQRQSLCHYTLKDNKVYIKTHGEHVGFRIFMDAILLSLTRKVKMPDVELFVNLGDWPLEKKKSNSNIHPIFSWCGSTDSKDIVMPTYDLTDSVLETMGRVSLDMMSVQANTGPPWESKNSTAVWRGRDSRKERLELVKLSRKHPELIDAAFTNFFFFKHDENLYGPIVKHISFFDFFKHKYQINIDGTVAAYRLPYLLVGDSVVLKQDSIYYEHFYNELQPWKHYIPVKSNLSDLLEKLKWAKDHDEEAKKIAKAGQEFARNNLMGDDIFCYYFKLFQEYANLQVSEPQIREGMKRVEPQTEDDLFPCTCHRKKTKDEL
# Method in brief: (§1)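 Data come from three independent experiments in which Dounce-homogenised Jurkat crude lysate was treated at eight concentrations from 0.1 to 10 mM. Treatment ran 10 min at room temperature and then 3 min at 37 °C, after which 0.8% NP40 and benzonase were added for 60 min at 4 °C before ultracentrifugation. The supernatant underwent TMT labelling and LC-MS/MS, and vsn-normalised intensities were expressed as fold change against the detergent-processed vehicle in each replicate.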
# [2] = target: T2, UniProt Q6UX04
# T2 sequence (whole entry): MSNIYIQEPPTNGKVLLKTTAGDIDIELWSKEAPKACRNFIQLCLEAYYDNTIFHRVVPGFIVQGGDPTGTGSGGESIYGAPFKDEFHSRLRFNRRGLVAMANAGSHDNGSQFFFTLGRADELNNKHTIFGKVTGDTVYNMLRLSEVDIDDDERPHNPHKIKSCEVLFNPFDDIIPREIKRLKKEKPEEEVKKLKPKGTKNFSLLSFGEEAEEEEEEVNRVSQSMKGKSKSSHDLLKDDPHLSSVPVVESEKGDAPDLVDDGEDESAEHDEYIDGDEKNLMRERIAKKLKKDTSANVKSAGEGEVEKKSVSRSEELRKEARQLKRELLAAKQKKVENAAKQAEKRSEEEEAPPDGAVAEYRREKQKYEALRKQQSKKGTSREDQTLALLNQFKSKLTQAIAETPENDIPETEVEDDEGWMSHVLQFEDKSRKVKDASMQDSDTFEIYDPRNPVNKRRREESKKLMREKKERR
# Method in brief: as §1
# [3] = target: T3, UniProt Q7L8W6
# T3 sequence (whole entry): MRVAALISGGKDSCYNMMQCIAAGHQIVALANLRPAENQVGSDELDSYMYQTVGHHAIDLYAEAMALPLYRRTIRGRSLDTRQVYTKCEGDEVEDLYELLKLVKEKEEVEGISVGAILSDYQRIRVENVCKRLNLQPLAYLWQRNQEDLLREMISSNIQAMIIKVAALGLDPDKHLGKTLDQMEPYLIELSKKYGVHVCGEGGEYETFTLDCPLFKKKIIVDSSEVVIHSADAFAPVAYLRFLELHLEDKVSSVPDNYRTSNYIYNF
# Method in brief: as §1
# [4] = target: T4, UniProt Q86TB9 and related entries
# T4 sequence (whole entry): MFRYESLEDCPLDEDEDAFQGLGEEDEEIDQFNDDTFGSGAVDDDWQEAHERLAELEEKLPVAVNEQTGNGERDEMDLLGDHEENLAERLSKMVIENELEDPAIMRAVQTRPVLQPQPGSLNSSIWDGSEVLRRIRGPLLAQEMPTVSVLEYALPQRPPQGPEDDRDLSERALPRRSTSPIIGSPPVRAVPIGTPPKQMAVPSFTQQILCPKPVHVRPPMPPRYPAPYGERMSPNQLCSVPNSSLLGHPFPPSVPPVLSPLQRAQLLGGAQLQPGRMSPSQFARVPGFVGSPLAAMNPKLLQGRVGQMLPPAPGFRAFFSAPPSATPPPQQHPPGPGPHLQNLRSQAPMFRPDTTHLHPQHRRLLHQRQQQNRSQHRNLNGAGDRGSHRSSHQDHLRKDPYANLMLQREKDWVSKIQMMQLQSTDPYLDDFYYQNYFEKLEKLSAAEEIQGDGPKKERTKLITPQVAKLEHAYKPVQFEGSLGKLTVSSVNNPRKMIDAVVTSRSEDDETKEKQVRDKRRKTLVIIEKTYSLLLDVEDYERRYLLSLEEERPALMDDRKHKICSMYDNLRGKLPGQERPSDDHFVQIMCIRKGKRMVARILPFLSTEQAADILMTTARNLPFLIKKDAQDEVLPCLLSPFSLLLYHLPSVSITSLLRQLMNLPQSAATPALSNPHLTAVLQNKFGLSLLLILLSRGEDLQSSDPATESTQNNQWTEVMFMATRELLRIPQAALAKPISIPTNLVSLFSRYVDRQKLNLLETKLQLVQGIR
# Method in brief: as §1
# [5] = target: T5, UniProt Q86WA6 and related entries
# T5 sequence (whole entry): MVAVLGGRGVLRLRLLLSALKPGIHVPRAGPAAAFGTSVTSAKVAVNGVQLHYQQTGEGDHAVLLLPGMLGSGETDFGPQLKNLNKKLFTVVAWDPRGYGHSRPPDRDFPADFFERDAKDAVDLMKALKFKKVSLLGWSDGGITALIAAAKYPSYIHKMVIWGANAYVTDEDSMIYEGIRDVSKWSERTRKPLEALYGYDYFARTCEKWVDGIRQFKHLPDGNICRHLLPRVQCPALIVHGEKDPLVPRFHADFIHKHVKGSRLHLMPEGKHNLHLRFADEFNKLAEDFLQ
# Method in brief: as §1
compound,measurement,setting,value
Nc1nc2c(ncn2[C@@H]2O[C@H](COP(=O)(O)OP(=O)(O)OP(=O)(O)O)[C@@H](O)[C@H]2O)c(=O)[nH]1 [guanosine triphosphate],NP40-soluble protein abundance,[1]; concentration: 4mM,1.04 ± 0.03
same,NP40-soluble protein abundance,[1]; concentration: 6mM,1.06 ± 0.034
same,NP40-soluble protein abundance,[1]; concentration: 8mM,1.02 ± 0.046
same,NP40-soluble protein abundance,[1]; concentration: 10mM,0.979 ± 0.011
same,NP40-soluble protein abundance,[2]; concentration: 0.1mM,1 ± 0.038
same,NP40-soluble protein abundance,[2]; concentration: 0.5mM,1.04 ± 0.059
same,NP40-soluble protein abundance,[2]; concentration: 1mM,1.03 ± 0.038
same,NP40-soluble protein abundance,[2]; concentration: 2mM,0.986 ± 0.072
same,NP40-soluble protein abundance,[2]; concentration: 4mM,0.972 ± 0.053
same,NP40-soluble protein abundance,[2]; concentration: 6mM,0.999 ± 0.069
same,NP40-soluble protein abundance,[2]; concentration: 8mM,1.03 ± 0.062
same,NP40-soluble protein abundance,[2]; concentration: 10mM,1.02 ± 0.059
same,NP40-soluble protein abundance,[3]; concentration: 0.1mM,1.06 ± 0.11
same,NP40-soluble protein abundance,[3]; concentration: 0.5mM,0.948 ± 0.17
same,NP40-soluble protein abundance,[3]; concentration: 1mM,0.991 ± 0.04
same,NP40-soluble protein abundance,[3]; concentration: 2mM,0.952 ± 0.023
same,NP40-soluble protein abundance,[3]; concentration: 4mM,0.923 ± 0.13
same,NP40-soluble protein abundance,[3]; concentration: 6mM,0.987 ± 0.15
same,NP40-soluble protein abundance,[3]; concentration: 8mM,0.867 ± 0.16
same,NP40-soluble protein abundance,[3]; concentration: 10mM,0.797 ± 0.12
same,NP40-soluble protein abundance,[4]; concentration: 0.1mM,0.989 ± 0.055
same,NP40-soluble protein abundance,[4]; concentration: 0.5mM,0.981 ± 0.053
same,NP40-soluble protein abundance,[4]; concentration: 1mM,0.987 ± 0.034
same,NP40-soluble protein abundance,[4]; concentration: 2mM,0.966 ± 0.032
same,NP40-soluble protein abundance,[4]; concentration: 4mM,0.956 ± 0.032
same,NP40-soluble protein abundance,[4]; concentration: 6mM,0.971 ± 0.04
same,NP40-soluble protein abundance,[4]; concentration: 8mM,0.963 ± 0.03
same,NP40-soluble protein abundance,[4]; concentration: 10mM,0.966 ± 0.06
same,NP40-soluble protein abundance,[5]; concentration: 0.1mM,1.03 ± 0.053
same,NP40-soluble protein abundance,[5]; concentration: 0.5mM,0.993 ± 0.065
same,NP40-soluble protein abundance,[5]; concentration: 1mM,0.985 ± 0.02
same,NP40-soluble protein abundance,[5]; concentration: 2mM,0.943 ± 0.056
same,NP40-soluble protein abundance,[5]; concentration: 4mM,0.96 ± 0.037
same,NP40-soluble protein abundance,[5]; concentration: 6mM,0.922 ± 0.047
same,NP40-soluble protein abundance,[5]; concentration: 8mM,0.922 ± 0.03
same,NP40-soluble protein abundance,[5]; concentration: 10mM,0.908 ± 0.055

# A different layout for some results above:
compound	measurement	setting	value
Nc1nc2c(ncn2[C@@H]2O[C@H](COP(=O)(O)OP(=O)(O)OP(=O)(O)O)[C@@H](O)[C@H]2O)c(=O)[nH]1 [guanosine triphosphate]	NP40-soluble protein abundance	[2]; concentration: 10mM	1.02 ± 0.059
same	NP40-soluble protein abundance	[3]; concentration: 0.1mM	1.06 ± 0.11
same	NP40-soluble protein abundance	[3]; concentration: 0.5mM	0.948 ± 0.17
